{"sequences": {"note": "By UniProt entry, the sequences of proteins in these tests, tags left out.", "UniProt Q9Y463, whole entry": "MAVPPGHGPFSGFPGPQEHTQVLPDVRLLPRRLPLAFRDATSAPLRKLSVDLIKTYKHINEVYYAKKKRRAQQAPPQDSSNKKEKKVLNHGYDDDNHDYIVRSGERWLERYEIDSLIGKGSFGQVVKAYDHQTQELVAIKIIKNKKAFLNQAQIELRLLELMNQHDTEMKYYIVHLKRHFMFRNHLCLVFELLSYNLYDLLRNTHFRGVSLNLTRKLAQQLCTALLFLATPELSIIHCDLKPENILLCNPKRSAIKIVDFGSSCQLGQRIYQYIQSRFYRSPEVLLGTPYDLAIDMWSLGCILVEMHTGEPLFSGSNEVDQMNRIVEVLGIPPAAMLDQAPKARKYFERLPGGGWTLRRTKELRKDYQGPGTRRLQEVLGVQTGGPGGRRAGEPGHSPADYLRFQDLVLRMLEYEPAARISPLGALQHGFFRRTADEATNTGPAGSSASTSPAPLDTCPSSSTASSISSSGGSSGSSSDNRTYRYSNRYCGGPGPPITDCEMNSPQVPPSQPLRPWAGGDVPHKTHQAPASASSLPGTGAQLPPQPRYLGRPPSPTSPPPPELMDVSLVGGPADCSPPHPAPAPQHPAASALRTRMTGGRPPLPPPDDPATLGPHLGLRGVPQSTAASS"}, "source": "ChEMBL document CHEMBL3421608", "about": "“Discovery and optimization of a novel series of Dyrk1B kinase inhibitors to explore a MEK resistance hypothesis” (J Med Chem, 2015)", "key": {"[1]": {"molecular_target": "T1, Dual specificity tyrosine-phosphorylation-regulated kinase 1B (Homo sapiens, UniProt Q9Y463)", "assay": "Inhibition of recombinant Dyrk1B (unknown origin) using FITC-Asp-His-Thr-Gly-Phe-Leu-Thr-Glu-Tyr-Val-Ala-Thr-Arg-NH2 as substrate after 60 mins"}, "[2]": {"molecular_target": "T1, Dual specificity tyrosine-phosphorylation-regulated kinase 1B", "assay": "Inhibition of human full length C-terminal c-Myc tagged Dyrk1B phosphorylation overexpressed in monkey COS1 cells after 5 hrs by ELISA", "type": "cell-based, COS-1", "summary_of_the_method": "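Cos-1 cells transiently overexpressing cMyc-tagged Dyrk; phospho-Dyrk pS421 inhibition measured after 5 h compound treatment. IC50 in micromolar, mean of at least n = 2 independent measurements.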"}}}
{"compound": "COc1cc(N2CCN(C)CC2)ccc1Nc1nccc(-c2cn(C)c3cnccc23)n1", "values": [{"measurement": "IC50", "setting": "[1]", "value": 3, "unit": "nM"}, {"measurement": "IC50", "setting": "[2]", "value": 42, "unit": "nM"}]}
